This note sets out measurements from publication PMC9601964.

Where a protein sequence is shown, tags need not be part of it.

The data set has as its target T1, RihR (XRE-family regulator) (Azorhizobium caulinodans ORS571) (UniProt A8IKA5).
T1 sequence (looked up): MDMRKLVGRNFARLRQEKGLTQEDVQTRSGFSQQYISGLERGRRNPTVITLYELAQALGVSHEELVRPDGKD
Briefly: EMSA. The settings on record: 50 ng DNA, increasing RihR, poly(dI-dC); 50 mM Tris-HCl pH 8.3, 0.25 M KCl, 2.5 mM DTT, 5 mM MgCl2, 0.25 mg/mL BSA, 0.05 mg/mL poly(dI-dC), 2.5 mM EDTA, 1% glycerol; 20 uL, 20 min, room temperature; recombinant protein; residues 1-72; protein details: N-terminal 6xHis (pET28a); probe letters rebuilt from the primers and the genome. On the technique in general: Mobility shift assays separate free from complexed probe on a gel.

With “ACATCTGGCTCTGCCGAACCCAAAAAAGCAAAAACGCCCCGGAGGGCGTTTGCTCGATATTCAATTTTCGAGAAACTGGAGCGGGCGAAGGGATTCGAACCCTCGACCCCAACCTTGGCAAGGTGCCCGAGAGCCATTCGCCGCAATATCCGATCCTTCGCCGCAGTTGTAAAAAGCAATACAAAGCAGATATTTATATCGTGCGCGCTCCGCCGATCGTCGCCGCCCAGACGCCACGATTTGATTTCGGATGCTTCCATTCGGCTTCCGGAAGCGTTAAAATAGGGAGAATGGAAGCAAATTTCATATAAGCGTTTGGAATAAAATGGAAAAGCTCACAAAGCGCCGTTTGGA (double strand) [intC promoter fragment]”, the binding result was “binds”.
